This assay concerns the target T1, Entamoeba histolytica deoxyhypusine synthase 1 (EhDHS1) with the amino-terminal His-tag (E. histolytica) (UniProt C4LXB8).
T1 sequence: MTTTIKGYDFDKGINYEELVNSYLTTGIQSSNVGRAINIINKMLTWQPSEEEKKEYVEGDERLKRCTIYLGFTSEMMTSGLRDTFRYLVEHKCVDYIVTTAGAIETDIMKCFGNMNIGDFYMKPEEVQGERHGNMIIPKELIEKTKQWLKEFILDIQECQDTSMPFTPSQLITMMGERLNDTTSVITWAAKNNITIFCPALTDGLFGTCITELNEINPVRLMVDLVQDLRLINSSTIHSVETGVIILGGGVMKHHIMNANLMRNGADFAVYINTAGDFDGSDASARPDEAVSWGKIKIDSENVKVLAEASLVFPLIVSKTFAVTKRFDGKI
Put plainly: pull-down.

Results on 1 molecule are retold here after publication doi:10.1101/2020.08.21.260711.

No constants are given. Whether binding was seen depends on the method and setting. Binding seen in cells or lysates may run through a third protein. Some entries that bind do so weakly or less than the wild type. Sequences can lack the tags named with a protein.

B1: Entamoeba histolytica deoxyhypusine synthase 2 (EhDHS2) with the carboxyl-terminal S-tag (enzyme, UniProt C4M2N7 1-336)
chain: MSITGEEFAKVTSKVLGESKEYKGEKCIGYDFDNGVDFNKVMEKMKYTGFQALNLGLCIEQVNEMRKNHAKIFLGMSSNIVSSGLREVIHYLVKNKFVDAIVVTAGGIEEDFIKTMHPTLLGDFYFKGKELYPNGYNRIGNLILPNSNYCEFEDWMDPLLLECLKEQNEHGVHWTPSKLVHKMGESINNESSIYYWAAKNNIPVFSPAITDGSIGDMIFFFSYKNEGLVLDLVQDVIKIDEMAFNAEKVGCLLVGAGIAKHHILNAMKRRGGCDYCAMLSTSIECDASDAGSEIAADRTKGFFKPECNPAKVIGDATILLPLIVASTFAQKEEPTK
Take B1: the binding result was “binds”.
